The assay has as its target T1, Bd0108 (Bdellovibrio bacteriovorus HD100) (UniProt Q6MRH6).
T1 sequence (chain, disulfide between C56 and C59; 15N-labelled in the NMR titration): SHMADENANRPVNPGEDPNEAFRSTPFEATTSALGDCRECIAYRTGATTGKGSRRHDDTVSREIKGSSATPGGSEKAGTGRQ
In words: NMR titration; 1H-15N HSQC of 25 µM 15N Bd0108 with increasing Bd0109 up to 200 µM; 900 MHz; 20 mM Tris pH 7.0 100 mM NaCl 1 mM β-ME; both purified.

By UniProt entry, the sequences of proteins in these tests, tags left out. Where a name states a change or a piece, a line headed by the entry shows the natural chain unless it says otherwise.
UniProt Q6MRH5: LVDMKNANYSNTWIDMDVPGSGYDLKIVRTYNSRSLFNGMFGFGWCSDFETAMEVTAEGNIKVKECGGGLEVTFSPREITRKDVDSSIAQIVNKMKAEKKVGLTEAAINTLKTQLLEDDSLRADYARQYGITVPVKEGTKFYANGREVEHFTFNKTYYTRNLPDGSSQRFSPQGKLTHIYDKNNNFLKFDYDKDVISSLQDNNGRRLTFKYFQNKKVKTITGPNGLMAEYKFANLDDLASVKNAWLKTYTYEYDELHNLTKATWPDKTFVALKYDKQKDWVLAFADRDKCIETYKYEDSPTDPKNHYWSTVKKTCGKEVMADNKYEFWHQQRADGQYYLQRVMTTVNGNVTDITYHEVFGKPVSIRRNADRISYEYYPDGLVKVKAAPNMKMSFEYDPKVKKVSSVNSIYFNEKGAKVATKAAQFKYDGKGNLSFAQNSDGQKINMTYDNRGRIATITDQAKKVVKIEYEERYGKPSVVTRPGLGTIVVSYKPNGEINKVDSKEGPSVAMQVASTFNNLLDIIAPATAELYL

Results are given in words; binding and its absence hold for the method and conditions named. A result given as binding can be weak or reduced; the word gives no strength.

Bd0109 (from UniProt Q6MRH5): the binding entry is on record as “binds weakly”.

These data come from paper PMC4267844, “The Lifestyle Switch Protein Bd0108 of Bdellovibrio bacteriovorus Is an Intrinsically Disordered Protein” (PLoS ONE, 2014).
